{
  "source": "patent US20190185521A1",
  "binders": {"B1": {"name": "Cyt1Aa (SEQ ID NO: 2) (protein)", "chain": "VEDPNEINNLLSINEIDNPNYILQAIMLANAFQNALVPTSTDFGDALRFSMPKGLEIANTITPMGAVVSYVDQNVTQTNNQVSVMINKVLEVLKTVLGVALSGSVIDQLTAAVTNTFTNLNTQKNEAWIFWGKETANQTNYTYNVLFAIQNAQTGGVMYCVPVGFEIKVSAVKEQVLFFTIQDSASYNVNIQSLK"}, "B2": {"name": "Cyt1Aa-A59C variant (SEQ ID NO: 4) (protein)", "chain": "B1 chain with A29C"}, "B3": {"name": "Cyt1Aa-A61C variant (SEQ ID NO: 6) (protein)", "chain": "B1 chain with A31C"}},
  "assay_in_all_cases": "self-oligomerization: protoxin with SUV liposomes and trypsin, SDS-PAGE and western blot",
  "key": {"[1]": {"biological_target": "Cyt1Aa (SEQ ID NO: 2) (Bacillus thuringiensis) (UniProt P0A382)"}, "[2]": {"biological_target": "Cyt1Aa-A59C variant (SEQ ID NO: 4) (Bacillus thuringiensis) (UniProt P0A382)"}, "[3]": {"biological_target": "Cyt1Aa-A61C variant (SEQ ID NO: 6) (Bacillus thuringiensis) (UniProt P0A382)"}},
  "note": "Where a chain is given by its changes, count along the chain named. Names may count otherwise. These are yes or no findings as the source states them, for the method shown. Some binding calls cover weakened binding; strength is not graded here.",
  "data": [
    {"binder": "B1", "values": [
      {"measurement": "binding", "setting": "[1]", "value": "binds"}
    ]},
    {"binder": "B2", "values": [
      {"measurement": "binding", "setting": "[2]", "value": "binds"}
    ]},
    {"binder": "B3", "values": [
      {"measurement": "binding", "setting": "[3]", "value": "binds"}
    ]}
  ]
}
